Assay results taken from paper PMC4930613.
No constants are given. Whether binding was seen depends on the method and setting. In cells and extracts the contact can be indirect. For some of these results: Binding calls can cover weak binding; strength is not graded here. Tags and fused reporters may be left off the sequences shown.

B1: EGFP-mDISC1 (mouse Disrupted-in-schizophrenia 1) (protein, UniProt Q811T9 1-852)
chain: MQGGGPRGAPIHSPSHGADSGHGLPPAVAPQRRRLTRRPGYMRSTAGSGIGFLSPAVGMPHPSSAGLTGQQSQHSQSKAGQCGLDPGSHCQASLVGKPFLKSSLVPAVASEGHLHPAQRSMRKRPVHFAVHSKNDSRQSERLTGSFKPGDSGFWQELLSSDSFKSLAPSLDAPWNKGSRGLKTVKPLASPALNGPADIASLPGFQDTFTSSFSFIQLSLGAAGERGEAEGCLPSREAEPLHQRPQEMAAEASSSDRPHGDPRHLWTFSLHAAPGLADLAQVTRSSSRQSECGTVSSSSSDTGFSSQDASSAGGRGDQGGGWADAHGWHTLLREWEPMLQDYLLSNRRQLEVTSLILKLQKCQEKVVEDGDYDTAETLRQRLEELEQEKGRLSWALPSQQPALRSFLGYLAAQIQVALHGATQRAGSDDPEAPLEGQLRTTAQDSLPASITRRDWLIREKQRLQKEIEALQARMSALEAKEKRLSQELEEQEVLLRWPGCDLMALVAQMSPGQLQEVSKALGETLTSANQAPFQVEPPETLRSLRERTKSLNLAVRELTAQVCSGEKLCSSLRRRLSDLDTRLPALLEAKMLALSGSCFSTAKELTEEIWALSSEREGLEMFLGRLLALSSRNSRRLGIVKEDHLRCRQDLALQDAAHKTRMKANTVKCMEVLEGQLSSCRCPLLGRVWKADLETCQLLMQSLQLQEAGSSPHAEDEEQVHSTGEAAQTAALAVPRTPHPEEEKSPLQVLQEWDTHSALSPHCAAGPWKEDSHIVSAEVGEKCEAIGVKLLHLEDQLLGAMYSHDEALFQSLQGELQTVKETLQAMILQLQPTKEAGEASASYPTAGAQETEA
B2: FLAG-mouse DISC1 (FLAG-mDISC1) (protein, UniProt Q811T9 1-852)
chain: MQGGGPRGAPIHSPSHGADSGHGLPPAVAPQRRRLTRRPGYMRSTAGSGIGFLSPAVGMPHPSSAGLTGQQSQHSQSKAGQCGLDPGSHCQASLVGKPFLKSSLVPAVASEGHLHPAQRSMRKRPVHFAVHSKNDSRQSERLTGSFKPGDSGFWQELLSSDSFKSLAPSLDAPWNKGSRGLKTVKPLASPALNGPADIASLPGFQDTFTSSFSFIQLSLGAAGERGEAEGCLPSREAEPLHQRPQEMAAEASSSDRPHGDPRHLWTFSLHAAPGLADLAQVTRSSSRQSECGTVSSSSSDTGFSSQDASSAGGRGDQGGGWADAHGWHTLLREWEPMLQDYLLSNRRQLEVTSLILKLQKCQEKVVEDGDYDTAETLRQRLEELEQEKGRLSWALPSQQPALRSFLGYLAAQIQVALHGATQRAGSDDPEAPLEGQLRTTAQDSLPASITRRDWLIREKQRLQKEIEALQARMSALEAKEKRLSQELEEQEVLLRWPGCDLMALVAQMSPGQLQEVSKALGETLTSANQAPFQVEPPETLRSLRERTKSLNLAVRELTAQVCSGEKLCSSLRRRLSDLDTRLPALLEAKMLALSGSCFSTAKELTEEIWALSSEREGLEMFLGRLLALSSRNSRRLGIVKEDHLRCRQDLALQDAAHKTRMKANTVKCMEVLEGQLSSCRCPLLGRVWKADLETCQLLMQSLQLQEAGSSPHAEDEEQVHSTGEAAQTAALAVPRTPHPEEEKSPLQVLQEWDTHSALSPHCAAGPWKEDSHIVSAEVGEKCEAIGVKLLHLEDQLLGAMYSHDEALFQSLQGELQTVKETLQAMILQLQPTKEAGEASASYPTAGAQETEA

What was measured:
[1] = molecular target: mSNPH-Myc (mouse Syntaphilin, wild type) (mouse); test: co-IP; mitochondrial fraction of CAD cells transfected with mSNPH-Myc and EGFP-mDISC1; ELB lysis buffer, overnight at 4 °C
[2] = molecular target: mSNPH-Myc (mouse Syntaphilin, wild type) (mouse); test: co-IP; lysates of CAD cells transfected with EGFP-mDISC1 and mSNPH-Myc; immunoprecipitated with anti-Myc or anti-GFP, blotted with anti-GFP and anti-Myc; ELB lysis buffer (50 mM Tris pH 8.0, 250 mM NaCl, 0.1 % NP-40, 5 mM EDTA), overnight at 4 °C
[3] = molecular target: mSNPH-Myc ∆401–495 (mouse); test: co-IP; lysates of transfected cells (cell line not stated) with FLAG-mDISC1 and mSNPH-Myc deletion mutants; ELB lysis buffer (50 mM Tris pH 8.0, 250 mM NaCl, 0.1 % NP-40, 5 mM EDTA), overnight at 4 °C
[4] = molecular target: mSNPH-Myc ∆87–159 (mouse); test: as above
[5] = molecular target: mSNPH-Myc ∆481–495 (mouse); test: as above
[6] = molecular target: mSNPH-Myc ∆1–86 (mouse); test: as above
[7] = molecular target: mSNPH-Myc ∆447–455 (mouse); test: as above

| binding [1] | binding [2] | binding [3] | binding [4] | binding [5] | binding [6] | binding [7] | Binder |
| --- | --- | --- | --- | --- | --- | --- | --- |
| binds | binds |  |  |  |  |  | B1 |
|  |  | no binding | binds | no binding | binds | no binding | B2 |
